Publication PMC2666748
Results are given in words; binding and its absence hold for the method and conditions named. Binding seen in cells or lysates may run through a third protein. Here binding means that the protein was enriched with, or labelled near, the bait; the list need not be complete. Values belong to the molecule of their own block, whether it stands above or below them.

Experiments:
Assay in all cases: affinity purification with mass spectrometry; additional bait fishing experiments with OE2402F, OE2404R and OE2401F as baits fused to a cellulose-binding domain; halobacterial protein complexes, components identified by mass spectrometry; details in Additional file 1
[1] = target: T1, OE2401F (bait) (H. salinarum) (UniProt B0R4J2)
T1 sequence: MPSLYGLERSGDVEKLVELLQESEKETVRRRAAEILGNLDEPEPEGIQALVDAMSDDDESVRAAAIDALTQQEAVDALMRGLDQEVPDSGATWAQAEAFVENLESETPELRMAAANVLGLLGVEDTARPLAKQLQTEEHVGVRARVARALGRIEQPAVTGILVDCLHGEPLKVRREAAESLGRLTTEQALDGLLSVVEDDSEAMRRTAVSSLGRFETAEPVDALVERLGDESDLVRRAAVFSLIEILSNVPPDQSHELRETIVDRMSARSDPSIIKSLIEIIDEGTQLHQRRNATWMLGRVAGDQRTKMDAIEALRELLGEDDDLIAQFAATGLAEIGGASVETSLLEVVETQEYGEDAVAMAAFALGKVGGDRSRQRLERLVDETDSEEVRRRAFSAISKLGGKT

[2] = target: T2, OE2404R (bait) (H. salinarum) (UniProt B0R4J4)
T2 sequence: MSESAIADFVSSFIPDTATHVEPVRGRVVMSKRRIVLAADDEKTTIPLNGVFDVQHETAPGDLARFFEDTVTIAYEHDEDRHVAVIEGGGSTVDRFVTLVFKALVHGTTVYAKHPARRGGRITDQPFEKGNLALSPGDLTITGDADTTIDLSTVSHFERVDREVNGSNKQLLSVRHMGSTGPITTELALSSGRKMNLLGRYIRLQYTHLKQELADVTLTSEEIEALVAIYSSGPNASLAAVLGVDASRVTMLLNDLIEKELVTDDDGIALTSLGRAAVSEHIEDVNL

[3] = target: T3, OE2402F (bait) (H. salinarum) (UniProt B0R4J3)
T3 sequence: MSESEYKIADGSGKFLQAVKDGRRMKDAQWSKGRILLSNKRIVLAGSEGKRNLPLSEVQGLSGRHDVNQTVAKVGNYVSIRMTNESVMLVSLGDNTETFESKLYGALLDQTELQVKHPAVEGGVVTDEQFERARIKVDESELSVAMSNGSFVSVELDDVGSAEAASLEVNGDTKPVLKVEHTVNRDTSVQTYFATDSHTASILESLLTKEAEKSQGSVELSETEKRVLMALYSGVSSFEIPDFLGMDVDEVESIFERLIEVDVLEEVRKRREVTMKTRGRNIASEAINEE

- binding [1]: binds
Molecule: CheD (prey)

- binding [2]: binds
- binding [3]: binds
Molecule: FlaCE

- binding [2]: binds
Molecule: FlaD

- binding [1]: binds
B1: OE2402F (protein, UniProt B0R4J3 1-290)
chain: T3 sequence
